Measurements: PubChem BioAssay AID2685 (National Center for Advancing Translational Sciences (NCATS), 2010)
The other results are listed elsewhere or left out. The main result of the screen is listed elsewhere. These columns were measured beside it and carry no call. Compounds called inactive in the main read-out are mostly missing here. The note in brackets gives the kind of curve behind each potency; many fits are weak.

Assay: qHTS Assay for Lipid Storage Modulators in Drosophila S3 Cells;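 for cell number change: cells counted by Cell Tracker Red CMTPX staining in the red channel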
Conditions: BODIPY lipid droplet fluorescence, 18-24 h; for cell number change: measured here: cell count max response, cells fed with added oleic acid
Procedure, shortened: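 Drosophila S3 cells got compounds at several concentrations plus oleic acid (400 uM solution). Laser-scanning cytometry with 488 nm excitation read lipid droplets at 500-530 nm and cells at 575-640 nm. Percent activity was relative to 20 uM Triacsin C.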

[1] = measured here: cell number channel AC50, cells fed with added oleic acid
[2] = measured here: lipid fluorescence (Fed channel) AC50, cells fed with added oleic acid

| SMILES | cell number change [%] | AC50 [1] | AC50 [2] |
| --- | --- | --- | --- |
| CC1=C(C(=O)N2CCOCC2)C(c2cc(C)cs2)NC(=O)N1 (stereo not drawn) | -203 | 0.103 µM [falling, full curve, poor fit] | 25.9 µM [falling, single point] |
| CC1=C(C(=O)Nc2cccc(C(=O)NC3CCCC(C)C3C)c2)SCCO1 (stereo not drawn) | -4.13 | – | 0.58 µM [rising, single point] |
| O=C(CCCOc1ccc(Cl)cc1Cl)N/N=C/c1ccccc1 | -65 | 9.2 µM [falling, partial curve] | 5.8 µM [falling, partial curve, poor fit] |
| CC(=O)Nc1nc2c(ccc3ccccc32)s1 | 3.98 | – | 4.11 µM [falling, single point] |
| COc1cc(/C=C2/NC(=O)N(Cc3ccccc3F)C2=O)ccc1Oc1ccc([N+](=O)[O-])cn1 | 37.7 | 16.4 µM [rising, single point] | 0.291 µM [rising, partial curve, poor fit] |
| O=C(Nc1cccc(-c2cn3ccccc3n2)c1)c1ccccc1 | – | 0.731 µM [rising, single point] | 0.58 µM [rising, single point] |
| O=C(Nc1ccc(-c2nc3ccccc3[nH]2)cc1)c1ccc2c(c1)OCO2 | -72.8 | 25.9 µM [falling, single point] | 23.1 µM [falling, single point] |
| Cc1ccc2c(c1)Oc1ccc(NC(=O)CCl)cc1C(=O)N2 | -37.4 | 0.82 µM [falling, full curve] | 0.92 µM [falling, full curve] |
| O=C(O)c1cccc(CN2C(=O)c3ccccc3C2=O)c1 | -7.8 | – | 5.8 µM [rising, single point] |
| O=C(c1cc2n(n1)C(C(F)(F)F)CC(c1ccco1)N2)N1CCN(c2ccccn2)CC1 (stereo not drawn) | -12.6 | – | 0.103 µM [rising, full curve, poor fit] |
| Cc1cc(Cl)cc(Cl)c1CNc1c([N+](=O)[O-])c(=O)oc2ccccc12 | 31.2 | 6.51 µM [rising, full curve, poor fit] | 29.1 µM [rising, single point] |
| Fc1ccccc1CN1CCCC(NC2CCC2)C1 (stereo not drawn) | 15.5 | – | 32.6 µM [rising, single point] |
| CCOC(=O)c1cnn(-c2nc(C)cc(C)n2)c1N | 31.9 | 1.64 µM [rising, partial curve] | 2.31 µM [rising, full curve] |
| Nc1c(C(=O)Nc2ccc3c(c2)OCCO3)nnn1Cc1ccc(Cl)cc1 | 50 | 29.1 µM [rising, single point] | – |
| Cc1nc(C#N)c(NCc2ccc3c(c2)OCO3)o1 | – | 1.16 µM [rising, partial curve] | – |
| O=C(COC(=O)/C=C/c1ccccc1)NNC(=O)c1ccc([N+](=O)[O-])cc1 | 33.9 | 13 µM [rising, single point] | – |
| NC(N)=NN=C1CCCCCCCCCCC1 | -36.6 | 29.1 µM [falling, single point] | – |
| Cc1c(C(=O)N2CCCC2)c(S(=O)(=O)NCCc2ccccc2)c(C)n1C | 14.7 | – | 23.1 µM [rising, single point] |
| O=C(N/N=C\c1ccc(Cl)s1)c1ccc(Cn2cccn2)o1 | -34 | 0.00651 µM [falling, full curve] | 4.11 µM [falling, single point] |
| CCn1nc(NS(=O)(=O)c2ccc(NC(C)=O)cc2)c2cc3cc(C)ccc3nc21 | -34.8 | 16.4 µM [falling, partial curve, poor fit] | – |

Four entries picked at random from those above:

| SMILES | cell number change [%] | AC50 [1] | AC50 [2] |
| --- | --- | --- | --- |
| CC(=O)Nc1nc2c(ccc3ccccc32)s1 | 3.98 | – | 4.11 µM [falling, single point] |
| O=C(Nc1ccc(-c2nc3ccccc3[nH]2)cc1)c1ccc2c(c1)OCO2 | -72.8 | 25.9 µM [falling, single point] | 23.1 µM [falling, single point] |
| O=C(Nc1cccc(-c2cn3ccccc3n2)c1)c1ccccc1 | – | 0.731 µM [rising, single point] | 0.58 µM [rising, single point] |
| Nc1c(C(=O)Nc2ccc3c(c2)OCCO3)nnn1Cc1ccc(Cl)cc1 | 50 | 29.1 µM [rising, single point] | – |

Carrying on:

| SMILES | cell number change [%] | AC50 [1] | AC50 [2] |
| --- | --- | --- | --- |
| Cc1ccc2c(c1)c(=O)c(Br)c(C)n2Cc1ccccc1 | – | – | 29.1 µM [falling, single point] |
| CCOC(=O)Cn1c(=N)n(CCOc2cccc(C)c2)c2ccccc21 | 33.3 | – | 0.651 µM [falling, single point] |
| Cc1cccc(OCC(=O)Nc2cccc(C(=O)Nc3ccccc3C(=O)O)c2)c1 | 17.9 | – | 4.61 µM [rising, partial curve, poor fit] |
| Cc1cccc(C)c1NC(=S)Nc1c(C)n(C)n(-c2ccccc2)c1=O | 15 | – | 2.91 µM [falling, full curve, poor fit] |
| Cc1ccc(C2=NOC(C)(c3nnc(-c4ccc(F)cc4)o3)C2)cc1 (stereo not drawn) | 11.2 | – | 4.11 µM [falling, single point] |
| CCc1cccc(NC(=O)COC(=O)C2CCN(c3ccc(C(F)(F)F)cn3)CC2)c1 | 8.09 | – | 6.51 µM [rising, single point] |
| Nc1nccc(/C=C/c2c(F)cccc2Cl)n1 | 21 | – | 0.13 µM [falling, full curve, poor fit] |
| Cc1cccc(OCCCCCN2CCOCC2)c1C | 10.5 | – | 29.1 µM [rising, single point] |
| CCOC(=O)C1=C(N)N(c2ccc(C)cc2)C2=C(C(=O)CCC2)C1c1cccs1 (stereo not drawn) | -5.32 | 3.66 µM [rising, single point] | – |
| CCN(CC)CCSc1nc(O)c(C(C)C)c(=O)[nH]1 | -37.9 | 32.6 µM [falling, single point] | 0.13 µM [falling, full curve, poor fit] |
| O=C(NNC(=O)c1cc(Br)c(Br)s1)c1csc(N2CCOCC2)n1 | 23.9 | – | 20.6 µM [rising, partial curve, poor fit] |
| CN(C)c1ccc(/C=N/N2C(=S)SC(C)(C)C2N(O)C(=O)Nc2ccc([N+](=O)[O-])cc2)cc1 (stereo not drawn) | 22.4 | – | 20.6 µM [rising, partial curve] |
| O=C(NN1CC(C(=O)OCc2ccc(Br)cc2)CC1=O)c1ccccc1 (stereo not drawn) | 28.5 | – | 7.31 µM [rising, partial curve] |
| Cc1cc(-c2ccc(S(=O)(=O)N3CCN(C)CC3)s2)on1 | -8.78 | – | – |
| COc1cc(NC(=O)CCCN2C(=O)NC(C)(C)C2=O)cc(OC)c1 | 4.26 | – | 6.51 µM [rising, partial curve, poor fit] |
| CCN1CCN(Cc2cccc(Oc3ccc(Cl)cc3)c2)CC1 | 10.2 | – | 0.411 µM [falling, full curve, poor fit] |
| O=C(CNC(=O)C(c1ccccc1)c1ccccc1)N/N=C\c1cccc(O)c1 | 19.9 | – | – |
| COc1ccc(-c2csc(-c3cccs3)n2)cc1OC | -4.06 | – | – |
| CCc1c(C)nc2ncnn2c1N1CCC(C(=O)Nc2cccc(C(C)=O)c2)CC1 | -8.12 | – | 3.66 µM [rising, single point] |
| C=CC[C@H]1Cc2c(cccc2[N+](=O)[O-])[C@H](CC=C)N1 | 3.21 | – | 23.1 µM [falling, single point] |

| SMILES | cell number change [%] | AC50 [1] | AC50 [2] |
| --- | --- | --- | --- |
| C=C(C)CSc1nc2c(cc1C#N)CCC2 | 11.2 | – | 5.8 µM [rising, partial curve] |
| CC(C(=O)Nc1ccc(S(=O)(=O)N2CCCC2)cc1)N(C)Cc1ccc(F)cc1 (stereo not drawn) | 1.98 | – | – |
| O=C(c1cccs1)N1CCN(c2ccc([N+](=O)[O-])cc2F)CC1 | – | 0.00461 µM [rising, full curve, poor fit] | 0.291 µM [rising, full curve, poor fit] |
| COc1ccc(CCNC(=O)/C(C#N)=C/c2ccc(OCC(=O)NCC3CCCO3)cc2)cc1OC (stereo not drawn) | -16.5 | – | 0.00517 µM [falling, full curve, poor fit] |
| Clc1ccc(CON/C=N/c2ncnc3sccc23)c(Cl)c1 | -12.6 | – | 13 µM [falling, single point] |
| O=C(Nc1ccc2c(c1)OCO2)c1cc2n(n1)C(C(F)(F)F)CC(c1ccccc1)N2 (stereo not drawn) | -2.05 | – | – |
| Nc1ccc(C(=O)N2CCN(S(=O)(=O)c3ccc(Cl)cc3)CC2)cc1[N+](=O)[O-] | 89.1 | 13 µM [rising, partial curve] | 6.51 µM [rising, single point] |
| O=C(OCCCN1CCOCC1)c1ccc(O)c(O)c1 | -14.5 | – | 4.11 µM [falling, full curve, poor fit] |
| COc1ccc(-n2cnc3sc4c(c3c2=O)CCCC4)cc1 | -1.22 | – | 0.146 µM [rising, single point] |
| Cc1ccc(N2C(=O)N(CC(=O)N(C)Cc3ccccc3)C(=O)C2C)cc1 (stereo not drawn) | 34 | 2.59 µM [rising, full curve, poor fit] | – |
| COC(=O)CCC/C=C1/SCC(NC(=O)c2ccccc2)C1=O (stereo not drawn) | -13 | – | – |
| CCCNC(=O)COC(=O)c1ccc(-c2ccccc2)cc1 | -25.1 | – | – |
| Cn1c(=O)c2c(nc(NCc3ccc4c(c3)OCO4)n2Cc2ccc(F)cc2)n(C)c1=O | 22.7 | – | 16.4 µM [falling, single point] |
| O=[N+]([O-])c1ccc(/C=N/n2cnc3ccccc32)s1 | -13.7 | – | 14.6 µM [falling, partial curve] |
| CCNC(=O)Cc1ccc(S(=O)(=O)N2CCOCC2)s1 | 12.9 | 6.51 µM [rising, single point] | 4.11 µM [falling, single point] |
| O=C(CCC(=O)c1ccccc1)NC1CCCN(Cc2ccccc2F)C1 (stereo not drawn) | -4.2 | – | 29.1 µM [rising, single point] |
| CC(C)Cc1nnc(NC(=O)CCC(=O)N2CCN(Cc3ccc(F)cc3)CC2)s1 | -6.12 | – | 0.651 µM [rising, single point] |
| Cn1nc(C(F)(F)F)c(C(=O)Nc2ccc(Cl)cc2)c1Cl | 15.4 | – | 6.51 µM [rising, partial curve, poor fit] |
